These are yes or no findings as the source states them, for the method shown. Binding seen in cells or lysates may run through a third protein. Some binding calls cover weakened binding; strength is not graded here. For some of these results: Tags and fused reporters may be left off the sequences shown.
Tests used:
[1] = biological target: HA-tagged NuMA (UniProt Q14980); assay: co-IP; HEK293 cells transiently co-transfected with a tagged bait (GST-AGS3, GFP-LGN, HA-NuMA or HA-Ric-8A) and Gαi2 or Gαi3; cells with or without PTX (100 ng/mL, 16 h); lysates untreated or treated with GDPβS or GTPγS (100 μM, 6 h at 4 °C); anti-GST or anti-GFP antisera with protein G agarose, or anti-HA agarose; Western blot (Figure 4B-D)
[2] = biological target: T1, HA-tagged mouse Ric-8A (mouse) (UniProt Q3TIR3); assay: as above
T1 sequence: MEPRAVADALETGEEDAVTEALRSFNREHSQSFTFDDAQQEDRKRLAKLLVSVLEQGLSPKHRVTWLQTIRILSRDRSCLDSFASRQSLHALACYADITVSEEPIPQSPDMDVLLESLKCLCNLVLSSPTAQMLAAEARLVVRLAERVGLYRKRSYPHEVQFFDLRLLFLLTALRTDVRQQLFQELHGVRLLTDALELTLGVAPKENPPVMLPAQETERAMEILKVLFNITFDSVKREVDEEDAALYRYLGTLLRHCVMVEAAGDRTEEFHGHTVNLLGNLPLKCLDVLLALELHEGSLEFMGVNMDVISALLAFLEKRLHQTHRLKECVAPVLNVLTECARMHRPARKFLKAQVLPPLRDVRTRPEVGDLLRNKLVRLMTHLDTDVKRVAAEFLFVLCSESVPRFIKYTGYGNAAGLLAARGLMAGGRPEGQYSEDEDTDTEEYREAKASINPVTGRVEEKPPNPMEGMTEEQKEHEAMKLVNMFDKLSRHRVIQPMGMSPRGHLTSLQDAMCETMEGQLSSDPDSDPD

Chains of the proteins cited; added tags and fusions are not shown.
UniProt Q14980: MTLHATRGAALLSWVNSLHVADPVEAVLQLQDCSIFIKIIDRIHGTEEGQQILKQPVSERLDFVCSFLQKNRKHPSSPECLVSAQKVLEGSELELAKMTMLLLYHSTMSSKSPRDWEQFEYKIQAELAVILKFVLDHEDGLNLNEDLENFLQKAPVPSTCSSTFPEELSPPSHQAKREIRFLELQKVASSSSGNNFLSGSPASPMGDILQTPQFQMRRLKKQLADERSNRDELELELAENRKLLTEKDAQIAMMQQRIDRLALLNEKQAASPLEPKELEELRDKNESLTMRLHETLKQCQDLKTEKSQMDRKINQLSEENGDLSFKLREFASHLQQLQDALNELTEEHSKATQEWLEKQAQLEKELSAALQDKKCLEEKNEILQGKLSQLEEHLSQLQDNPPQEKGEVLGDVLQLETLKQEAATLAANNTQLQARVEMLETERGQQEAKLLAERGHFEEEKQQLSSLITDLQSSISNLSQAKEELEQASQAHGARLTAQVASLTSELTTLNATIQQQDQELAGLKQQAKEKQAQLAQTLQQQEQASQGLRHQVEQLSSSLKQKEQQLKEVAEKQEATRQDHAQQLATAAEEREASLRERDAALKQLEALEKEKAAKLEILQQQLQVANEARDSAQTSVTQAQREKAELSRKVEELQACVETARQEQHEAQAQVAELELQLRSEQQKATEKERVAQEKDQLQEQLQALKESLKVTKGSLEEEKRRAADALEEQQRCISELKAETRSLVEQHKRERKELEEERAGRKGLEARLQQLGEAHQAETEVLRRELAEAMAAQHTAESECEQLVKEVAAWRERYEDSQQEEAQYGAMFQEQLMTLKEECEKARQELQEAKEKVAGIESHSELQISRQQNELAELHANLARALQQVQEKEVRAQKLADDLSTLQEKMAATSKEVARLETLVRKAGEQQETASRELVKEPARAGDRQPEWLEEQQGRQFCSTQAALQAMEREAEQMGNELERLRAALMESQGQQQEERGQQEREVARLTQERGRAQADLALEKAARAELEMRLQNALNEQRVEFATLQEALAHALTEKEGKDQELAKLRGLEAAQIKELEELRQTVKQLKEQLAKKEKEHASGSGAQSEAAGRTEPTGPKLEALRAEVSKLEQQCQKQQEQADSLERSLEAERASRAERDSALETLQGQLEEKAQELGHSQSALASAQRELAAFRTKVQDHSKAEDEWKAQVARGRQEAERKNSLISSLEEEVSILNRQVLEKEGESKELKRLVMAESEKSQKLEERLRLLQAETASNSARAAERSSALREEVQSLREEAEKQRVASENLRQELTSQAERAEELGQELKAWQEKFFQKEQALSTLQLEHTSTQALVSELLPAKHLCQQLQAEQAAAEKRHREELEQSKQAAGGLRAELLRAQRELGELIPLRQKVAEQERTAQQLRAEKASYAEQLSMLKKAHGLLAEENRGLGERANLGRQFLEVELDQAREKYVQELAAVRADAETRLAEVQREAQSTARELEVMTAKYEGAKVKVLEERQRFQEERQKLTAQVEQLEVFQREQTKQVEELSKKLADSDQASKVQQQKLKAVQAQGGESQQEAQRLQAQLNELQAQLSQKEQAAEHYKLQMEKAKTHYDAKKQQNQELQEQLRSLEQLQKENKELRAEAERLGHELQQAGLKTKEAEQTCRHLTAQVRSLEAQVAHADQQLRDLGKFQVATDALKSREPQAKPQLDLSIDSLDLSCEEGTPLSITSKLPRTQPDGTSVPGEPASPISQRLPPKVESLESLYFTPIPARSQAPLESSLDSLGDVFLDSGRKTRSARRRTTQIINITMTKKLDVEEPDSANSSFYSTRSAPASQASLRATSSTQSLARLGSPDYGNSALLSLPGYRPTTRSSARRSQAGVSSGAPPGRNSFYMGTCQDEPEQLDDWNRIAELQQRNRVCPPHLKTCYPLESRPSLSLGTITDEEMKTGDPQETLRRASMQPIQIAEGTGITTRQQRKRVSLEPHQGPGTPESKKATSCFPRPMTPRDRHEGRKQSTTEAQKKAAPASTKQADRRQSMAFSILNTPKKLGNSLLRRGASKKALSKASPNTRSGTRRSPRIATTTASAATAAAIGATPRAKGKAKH
UniProt P08754: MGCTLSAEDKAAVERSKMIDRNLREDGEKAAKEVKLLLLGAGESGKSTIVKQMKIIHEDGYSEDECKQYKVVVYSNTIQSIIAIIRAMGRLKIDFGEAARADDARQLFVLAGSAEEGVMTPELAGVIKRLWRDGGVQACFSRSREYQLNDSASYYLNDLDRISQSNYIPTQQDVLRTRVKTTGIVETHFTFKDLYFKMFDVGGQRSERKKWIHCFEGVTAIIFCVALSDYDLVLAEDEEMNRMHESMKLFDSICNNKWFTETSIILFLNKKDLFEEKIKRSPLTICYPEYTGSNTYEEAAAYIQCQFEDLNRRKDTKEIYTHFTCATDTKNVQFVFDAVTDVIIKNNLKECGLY

[3] = biological target: T2, GFP-tagged LGN (UniProt P81274); assay: as above
T2 sequence: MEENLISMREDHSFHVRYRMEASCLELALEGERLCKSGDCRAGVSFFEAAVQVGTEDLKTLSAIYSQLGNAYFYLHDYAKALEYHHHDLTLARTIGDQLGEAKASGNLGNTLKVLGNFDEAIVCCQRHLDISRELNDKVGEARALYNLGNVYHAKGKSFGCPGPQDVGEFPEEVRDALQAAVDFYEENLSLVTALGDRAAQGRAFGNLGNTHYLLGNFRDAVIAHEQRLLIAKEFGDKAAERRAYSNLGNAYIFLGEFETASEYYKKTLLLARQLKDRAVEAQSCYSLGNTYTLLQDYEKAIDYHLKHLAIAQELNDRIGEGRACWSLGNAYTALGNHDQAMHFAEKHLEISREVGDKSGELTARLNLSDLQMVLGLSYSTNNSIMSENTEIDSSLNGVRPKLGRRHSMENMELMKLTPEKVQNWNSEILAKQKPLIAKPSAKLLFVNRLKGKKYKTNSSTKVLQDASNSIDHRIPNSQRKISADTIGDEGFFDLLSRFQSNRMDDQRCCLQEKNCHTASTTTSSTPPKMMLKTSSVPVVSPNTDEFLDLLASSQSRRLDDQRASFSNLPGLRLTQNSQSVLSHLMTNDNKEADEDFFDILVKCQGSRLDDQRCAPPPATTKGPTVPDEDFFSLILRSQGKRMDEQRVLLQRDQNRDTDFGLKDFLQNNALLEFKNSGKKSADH

[4] = biological target: T3, activator of G protein signaling 3 (AGS3), endogenous in ENStem-A cells (human (endogenous in ENStem-A)) (UniProt Q86YR5); assay: co-IP; endogenous proteins; lysates of ENStem-A cells after 7 days of differentiation (Day 0 sample run alongside), equivalent amount of AGS3; anti-AGS3 antiserum, then protein G agarose; Western blot with antisera against Gαi2, Gαi3 or NuMA
T3 sequence: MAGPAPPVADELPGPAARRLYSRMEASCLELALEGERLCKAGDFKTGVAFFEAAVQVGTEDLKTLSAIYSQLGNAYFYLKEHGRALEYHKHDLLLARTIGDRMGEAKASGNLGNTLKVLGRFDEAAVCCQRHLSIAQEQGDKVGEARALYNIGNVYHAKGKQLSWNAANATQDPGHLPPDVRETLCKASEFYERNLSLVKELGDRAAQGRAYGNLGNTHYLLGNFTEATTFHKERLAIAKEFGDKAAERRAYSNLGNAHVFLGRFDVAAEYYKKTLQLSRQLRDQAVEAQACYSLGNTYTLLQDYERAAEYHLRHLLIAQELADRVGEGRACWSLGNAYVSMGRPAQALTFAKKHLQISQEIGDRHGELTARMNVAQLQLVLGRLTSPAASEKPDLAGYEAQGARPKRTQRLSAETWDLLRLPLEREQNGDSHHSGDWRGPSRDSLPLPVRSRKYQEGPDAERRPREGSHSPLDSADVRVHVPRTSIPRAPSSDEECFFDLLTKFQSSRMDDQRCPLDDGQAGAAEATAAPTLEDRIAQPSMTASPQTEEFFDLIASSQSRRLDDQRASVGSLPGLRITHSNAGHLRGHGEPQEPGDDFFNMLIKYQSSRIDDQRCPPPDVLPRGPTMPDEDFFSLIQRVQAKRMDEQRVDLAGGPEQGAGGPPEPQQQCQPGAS

Substance	binding [1]	binding [2]	binding [3]	binding [4]
Gαi3 subunit, overexpressed in HEK293 cells (from UniProt P08754 1-354)	no binding	binds	binds	
nuclear mitotic apparatus (NuMA), endogenous in ENStem-A cells (from UniProt Q14980 1-2115)				binds

— paper PMC7664263
